Source: US20210161840A1, “COMPOSITIONS AND METHODS FOR TREATMENT OF IRON OVERLOAD” (priority 2018, published 2021)
For at least one compound, name, drawing or mass did not settle the structure.

Test system: 5/6 nephrectomized rats (CKD model)
Experiment: Rats' CKD model induced by 5/6 nephrectomy
Assay type: in vivo, Sprague-Dawley rats
Conditions: 3 weeks treatment
[1] = DFX or Zn-DFX 30 mg/kg/day oral, Zn-DFO 6 mg/kg i.p. thrice a week, combination Zn-DFX 10 mg/kg/day oral + Zn-DFO 4 mg/kg i.p.

O=C(O)c1ccc(-n2nc(-c3ccccc3O)nc2-c2ccccc2O)cc1 [DFX, deferasirox]
reduction of serum creatinine [1]: 30% | reduction of urinary protein secretion [1]: 30% | effect on blood pressure (single agents): no effect
